Reference: PubChem BioAssay AID1508588 (Peter MacCallum Cancer Centre, 2020)
Assay: 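Genome-wide search for knock-downs that heighten vemurafenib action in melanoma cells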 (primary screen). Cell system: human WM266.4 melanoma cells (BRAF V600 mutant). Knock-down reagent: siRNA pool against human genes, 40 nM. Timing: 96 h from transfection to read-out. Conditions: vemurafenib 300 nM (about IC25), added 48 h after transfection, for 48 h; comparison arm got DMSO vehicle only. Detection: 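Cell gain (DAPI nuclei at end minus before drug, mean of two replicates) and medium lactate by absorbance per cell, both as ratio to non-targeting siRNA, also grouped into fold-change classes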. Scale: cell gain with vemurafenib: higher = more cell gain than with non-targeting siRNA; lactate per cell with vemurafenib: higher = more lactate made per cell. Hit rule: 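Enhancement is called by pairing each knock-down's vehicle-arm and drug-arm fold-change classes for viability or glycolysis; which class combinations qualify is not given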. Calls: active = enhances vemurafenib effect; inactive = no enhancement seen.
In all, the deposit lists about 18,000 reagents; below is a random part of them. Of all reagents, 790 (4.4%) are marked active. 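Calls rest on a combination of fold-change classes in drug and vehicle arms, not all shown here.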 Reagent sequences are not shown.

gene	cell gain with vemurafenib	lactate per cell with vemurafenib	Call
CSAD (GeneID 51380)	0.51	1.32	inactive
SUSD4 (GeneID 55061)	0.28	0.28	inactive
POC1A (GeneID 25886)	0.57	0.73	inactive
OR4D10 (GeneID 390197)	0.64	1.04	inactive
GRIN3A (GeneID 116443)	0.97	0.57	inactive
LCA5 (GeneID 167691)	0.57	0.66	inactive
ARL6IP1 (GeneID 23204)	0.31	0.22	inactive
PAGE2 (GeneID 203569)	0.52	0.62	inactive
MYOZ2 (GeneID 51778)	0.59	1.21	inactive
OR5B2 (GeneID 390190)	0.74	0.46	inactive
FBXO31 (GeneID 79791)	0.33	1.28	inactive
OR4F29 (GeneID 729759)	0.33	1.83	inactive
KDM6B (GeneID 23135)	0.08	1.24	inactive
TUBGCP6 (GeneID 85378)	0.46	1.32	inactive
PCDH12 (GeneID 51294)	0.38	0.48	active
NUDT14 (GeneID 256281)	0.55	0.82	inactive
RP2 (GeneID 6102)	0.93	0.57	inactive
RPH3A (GeneID 22895)	0.37	0.4	inactive
TECR (GeneID 9524)	0.54	1.34	inactive
SLC25A20 (GeneID 788)	0.94	0.52	inactive
HEBP2 (GeneID 23593)	0.38	1.42	inactive
PSMD9 (GeneID 5715)	0.05	0.89	inactive
SESN2 (GeneID 83667)	0.49	1.38	inactive
AKT1S1 (GeneID 84335)	1	1.27	inactive
CCL18 (GeneID 6362)	0.75	0.12	active
RPRD2 (GeneID 23248)	1.06	0.9	inactive
H2AB1 (GeneID 474382)	1.07	1.22	inactive
KRTAP5-6 (GeneID 440023)	0.02	0.58	inactive
KCNQ1 (GeneID 3784)	0.57	0.74	inactive
RGS5 (GeneID 8490)	0.34	1.02	inactive
TMEM179B (GeneID 374395)	1.03	0.48	inactive
OLFML2B (GeneID 25903)	1.15	0.71	inactive
LRRC28 (GeneID 123355)	0.61	1.77	inactive
SLC25A12 (GeneID 8604)	0.73	0.52	inactive
ADAMTSL3 (GeneID 57188)	0.16	2.38	inactive
LSR (GeneID 51599)	0.12	0.94	inactive
HSD17B12 (GeneID 51144)	0.85	0.74	inactive
DUS2 (GeneID 54920)	1.19	0.74	inactive
DDAH2 (GeneID 23564)	0.21	1.88	inactive
TCAF2 (GeneID 285966)	0.13	2.6	inactive
DYRK3 (GeneID 8444)	0.56	0.86	inactive
PGLYRP3 (GeneID 114771)	1.28	0.63	inactive
OPTN (GeneID 10133)	0.03	2.8	inactive
CYP4F3 (GeneID 4051)	0.93	0.74	inactive
UBTFL7 (GeneID 646759)	0.55	0.58	inactive
MAPKAPK3 (GeneID 7867)	0.85	0.76	inactive
GABRA5 (GeneID 2558)	0.4	0.83	inactive
MTCH1 (GeneID 23787)	0.78	0.65	inactive
NUPR1 (GeneID 26471)	0.68	0.42	inactive
UNC80 (GeneID 285175)	-0.01	0.88	inactive
BGN (GeneID 633)	0.7	0.95	inactive
NHERF4 (GeneID 79849)	1.11	0.69	inactive
OR52D1 (GeneID 390066)	0.83	0.32	inactive
EPB41 (GeneID 2035)	1	0.51	inactive
VGLL2 (GeneID 245806)	0.32	2.4	inactive
XAB2 (GeneID 56949)	0.15	1.73	inactive
C12orf42 (GeneID 374470)	1	0.52	inactive

An excerpt of the results above, as a working copy:
gene	cell gain with vemurafenib	lactate per cell with vemurafenib	Call
CYP4F3 (GeneID 4051)	0.93	0.74	inactive
UBTFL7 (GeneID 646759)	0.55	0.58	inactive
MAPKAPK3 (GeneID 7867)	0.85	0.76	inactive
GABRA5 (GeneID 2558)	0.4	0.83	inactive
MTCH1 (GeneID 23787)	0.78	0.65	inactive
NUPR1 (GeneID 26471)	0.68	0.42	inactive
UNC80 (GeneID 285175)	-0.01	0.88	inactive
